42 sequences from paper PMC7819943, “Rice protein-binding microarrays: a tool to detect cis-acting elements near promoter regions in rice” can be followed below.

Chains of the proteins cited; added tags and fusions are not shown.
UniProt Q0JBA9, entry or part of it: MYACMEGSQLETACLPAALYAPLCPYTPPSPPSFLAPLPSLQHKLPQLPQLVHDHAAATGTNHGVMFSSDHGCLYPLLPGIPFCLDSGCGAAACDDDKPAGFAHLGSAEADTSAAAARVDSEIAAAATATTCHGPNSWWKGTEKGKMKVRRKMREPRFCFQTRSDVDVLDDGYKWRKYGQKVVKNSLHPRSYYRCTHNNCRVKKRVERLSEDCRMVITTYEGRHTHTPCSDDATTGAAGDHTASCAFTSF

The other results are listed elsewhere or left out.

The target of the assay is OsWRKY34 (Oryza sativa, UniProt Q0JBA9 1-250). The experiment in a line: protein-binding microarray (RPBM); PBS, 2% BSA, 51.3 ng/ul salmon testes DNA, 50 uM zinc acetate, 200 nM TF, 25 C, 1 h; high values mean tight binding. The following applies: protein: recombinant; tags: N-terminal polyhistidine and DsRed monomer fusion (pET32a); label: CyDye5-dUTP incorporated in the synthesized complementary strand; 3' TTTTT single-stranded linker to array surface; dsDNA, one strand shown. An outline of the steps: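 The binding signal for each feature is its fluorescence intensity in arbitrary units. An Axon 4000B scanner was used to read a custom Agilent array that had been made double-stranded with Cy5-dUTP primer extension, blocked with 2% BSA, incubated at 25 °C for 1 h with 200 nM protein in PBS, 2% BSA, salmon testes DNA and 50 µM zinc acetate, and washed. The protein was an N-terminal polyhistidine–DsRed transcription factor fusion from E. coli BL21-CodonPlus, purified on Ni–NTA.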
Turning to “CACCTGCGCCCACCGCCTCGCTCGATCGCCACCGCACCACCGGAGTCACCTAGTGCAG”, the binding signal is 8150 fluorescence intensity (a.u.).

Consider “TTTTTTCAGTTGAATTTATCCCTTTTTTCCCTTAATTCGTCGGAGTCACCTAGTGCAG”, for which the binding signal was 10900 fluorescence intensity (a.u.).

For the sequence “TGTTCCTCTACTCGATTACGATGTTCCTGGAGTAATTTTCCGGAGTCACCTAGTGCAG”, the binding signal is 8540 fluorescence intensity (a.u.).

Regarding “GTGATCTGAATTCCTTTTTTTTTTTCCATCTCGTTTGCTGCGGAGTCACCTAGTGCAG”, the binding signal is 9560 fluorescence intensity (a.u.).

Take “CTCACGCATGCAAGTGCATGTGCACACTCACACCAAGTAACGGAGTCACCTAGTGCAG”: the binding signal was 8470 fluorescence intensity (a.u.).

As for “TAATTCTCTCATTCCTCTCTCTGTCTCTCTCATCGGTTCTCGGAGTCACCTAGTGCAG”, the binding signal was 11500 fluorescence intensity (a.u.).

As to “TGACTTTCTTACCATGCACTTACCTTACCATGTACTAGTACGGAGTCACCTAGTGCAG”, the binding signal was 9420 fluorescence intensity (a.u.).

As for “TTCCGCAAAACCTGACTTCTTTACTTGTTTATGCAGATGACGGAGTCACCTAGTGCAG”, the binding signal was 8140 fluorescence intensity (a.u.).

Regarding “AGTAAGTGTGCTTTGCTCGTAATACTCCTTTCTTTTTCTGCGGAGTCACCTAGTGCAG”, the binding signal is 8090 fluorescence intensity (a.u.).

Regarding “CCCGGTCAGTCAAACTTCCGGATCGTGTCCTGTTTGACTCCGGAGTCACCTAGTGCAG”, the binding signal was 10700 fluorescence intensity (a.u.).

As for “TACTACTCCCTCCGTTTCAAAATGTTTGACACCGTTGACTCGGAGTCACCTAGTGCAG”, the binding signal was 13100 fluorescence intensity (a.u.).

Take “CCACCACCACTCCATCACAGTCTGCTCATTAGCTCGAGACCGGAGTCACCTAGTGCAG”: the binding signal is 8340 fluorescence intensity (a.u.).

Regarding “CTTGGCTGTTCTTGGGTGGGTGAGGTGGGGCGGTCGGATCCGGAGTCACCTAGTGCAG”, the binding signal was 17100 fluorescence intensity (a.u.).

With “GGTGGAGGCGGGCGCGGTGGAGGCGGGGAGGAAGGGGAGCCGGAGTCACCTAGTGCAG”, the binding signal is 15100 fluorescence intensity (a.u.).

As for “GGTTTTGTATCCTTCAAACCTGTCACAAGCTGTCATATTTCGGAGTCACCTAGTGCAG”, the binding signal was 8860 fluorescence intensity (a.u.).

For “GCCGCCGCCGCCGCCGCCGCCTTCCGCATCGTCGCCGTCGCGGAGTCACCTAGTGCAG”, the binding signal was 8550 fluorescence intensity (a.u.).

Turning to “GGCATTATTTCTATCCATCCGTACGAGATTCCTGTGTTTACGGAGTCACCTAGTGCAG”, the binding signal was 8740 fluorescence intensity (a.u.).

“CTTCCCCGCGCTGACCGAGCTTCGCGATCTAAAAGTCAAACGGAGTCACCTAGTGCAG”: the binding signal is 9280 fluorescence intensity (a.u.).

As to “CGGCTCGACGCCCACCCGCAAACCCTCGCATTTCCCATCTCGGAGTCACCTAGTGCAG”, the binding signal was 8300 fluorescence intensity (a.u.).

Consider “GTGACCTCTGCAATGCCATTGCCATGTTCTCTCTCTAGATCGGAGTCACCTAGTGCAG”, for which the binding signal is 8530 fluorescence intensity (a.u.).

As for “TGTCATATCATCTCTGTTACTGTTTGGTGCACCTTTTTTTCGGAGTCACCTAGTGCAG”, the binding signal is 9100 fluorescence intensity (a.u.).

“TGCACCACTCACCCTGCCACGCGCTATATATGGCCACCACCGGAGTCACCTAGTGCAG”: the binding signal was 8280 fluorescence intensity (a.u.).

Consider “AGTATGATAATCTTGTTTGATGGGATTTGCAGTGCATTTCCGGAGTCACCTAGTGCAG”, for which the binding signal is 8040 fluorescence intensity (a.u.).

Turning to “GAACCGCGCACGAATCCCTCACGACCGTCCACGCCTCGCGCGGAGTCACCTAGTGCAG”, the binding signal was 8040 fluorescence intensity (a.u.).

Consider “ACTTATTTTCAGAATTCTGAACCTTTTAACCATGCCAGCCCGGAGTCACCTAGTGCAG”, for which the binding signal is 10400 fluorescence intensity (a.u.).

Turning to “CGCAGGGTGGTGGTGGTACTTCCGTAATTTCCTTCCGATTCGGAGTCACCTAGTGCAG”, the binding signal is 16400 fluorescence intensity (a.u.).

As for “GGATAGACTTTTCAGCTTTTTTTTTGTTTGTTTGTTAAATCGGAGTCACCTAGTGCAG”, the binding signal was 9200 fluorescence intensity (a.u.).

For “CTCCAACGAAATCTTCGCCGTGTCAACCCGCGCCTCCGATCGGAGTCACCTAGTGCAG”, the binding signal is 8380 fluorescence intensity (a.u.).

As for “ATCTTGTGTCTTGATCTATTGTTCCGTGTCCCCTCTCCTCCGGAGTCACCTAGTGCAG”, the binding signal was 10000 fluorescence intensity (a.u.).

For “TATCCTGTAACATGTTACAATCATTGTTCTTGCGCTAAGCCGGAGTCACCTAGTGCAG”, the binding signal was 8530 fluorescence intensity (a.u.).

On to “ATACTCTCTCTGTAGGTACATCTCTCTACCATCTCTGTCGCGGAGTCACCTAGTGCAG”, for which the binding signal was 9840 fluorescence intensity (a.u.).

On to “TAAGTGGGCAACCCTCACCATATCTCCTTTTGCCTTTTATCGGAGTCACCTAGTGCAG”, for which the binding signal is 8900 fluorescence intensity (a.u.).

With “GTTATATATCGTTTTATTTTATTTAAGTTTGTTTCTATAACGGAGTCACCTAGTGCAG”, the binding signal is 9860 fluorescence intensity (a.u.).

With “TCCTCTCATCTCCCTTTTTTTTTCTTCTCTTCGCGAGCTCCGGAGTCACCTAGTGCAG”, the binding signal is 8620 fluorescence intensity (a.u.).

As for “CTCGAGCCCTTGATCATATCCTTTTCTTCCTTGTCCACCACGGAGTCACCTAGTGCAG”, the binding signal is 9460 fluorescence intensity (a.u.).

Consider “CCTTTTTCTCACTTAGTAGGTGCCATCTAATGCCCTTGATCGGAGTCACCTAGTGCAG”, for which the binding signal was 9830 fluorescence intensity (a.u.).

In the case of “TATTGATCTGACGATCTAATTGTGGTTATATGTGTTCTTGCGGAGTCACCTAGTGCAG”, the binding signal is 9300 fluorescence intensity (a.u.).

Regarding “GTCACCGTCTCGTCTCCGTCTCCGCCGCTCGTCGTCGACCCGGAGTCACCTAGTGCAG”, the binding signal is 12600 fluorescence intensity (a.u.).

Consider “AAAACCGATCCGTTCTCATCAAAACCGCACTGTGTTTTGTCGGAGTCACCTAGTGCAG”, for which the binding signal is 8250 fluorescence intensity (a.u.).

Turning to “GTGGACTTGTATCTGCCAGTGATCCTCATGCTTTTTCAGTCGGAGTCACCTAGTGCAG”, the binding signal is 8780 fluorescence intensity (a.u.).

For “ATCTCCTCTCGACCACTAACATTTTAGTCACCTTGTCTCCCGGAGTCACCTAGTGCAG”, the binding signal was 11400 fluorescence intensity (a.u.).

In the case of “AGGCTATTTCCCACGTTCCCGCCCCGTTGGCCAAATCTCTCGGAGTCACCTAGTGCAG”, the binding signal is 9860 fluorescence intensity (a.u.).
